According to the supplement of paper PMC6119338:
The list shows a part of the results. Repeats are few or missing, and single values can be far off.

tested on: Plasmodium berghei sporozoites; assay: residual sporozoite gliding motility relative to DMSO control; higher = less inhibition of motility; details: 10 µM; incubation time 30 min

Residual sporozoite gliding motility, > 50%:
COc1ccc(-n2ccnc2SCC(=O)Nc2cc(C)ccc2C)c(OC)c1
COc1ccc(Nc2nc(NCc3ccccc3)c3ccccc3n2)cc1
CC1CN(C(=O)c2sc3ccccc3c2Cl)CC(C)O1 (stereo unspecified)
CCN(CC)CCNc1ncnc2c1[nH]c1ccc(Br)cc12
Cc1cc(NCCN2CCCCC2)c2ccc3ccccc3c2n1
CCn1c2c(c(=N)c3c1CCC3)CCCC2
Oc1ccc2ccccc2c1CNc1nc2ccccc2[nH]1
COc1ccc2c(c1)C1(Nc3ccccc3-c3nc4ccccc4n31)C(=O)N2 (stereo unspecified)
O=c1c2c([nH]c3ccccc13)CCCC2
CSC1=NC(=Nc2c(C)cccc2C)C2(CCC(C(C)(C)C)CC2)N1c1ccc(Cl)cc1 (stereo unspecified)
CCOC(=O)C1=C(C)N=c2sc(=Cc3cc(Cl)ccc3O)c(=O)n2C1c1ccc(OC)cc1 (stereo unspecified)
Clc1ccc2c(N3CCCC3)ccnc2c1
O=C(CSc1ccc2nnc(-c3cccc(F)c3)n2n1)Nc1ccc2c(c1)OCO2
OC1CCCCC1C1(NC(=S)Nc2ccccc2)CCCCC1 (stereo unspecified)
CCOc1cc2c(cc1OCC)C(c1cc(Cl)ccc1O)NCC2 (stereo unspecified)
CCCCN(CCCC)S(=O)(=O)c1ccc(NC(=O)c2ccco2)cc1
COc1ccc(C(=O)C2CC2c2ccc(Cl)cc2)cc1 (stereo unspecified)
COc1ccc(-c2nc(NC(=O)CS(=O)(=O)c3ccc(F)cc3)sc2C)cc1
OC1=C2C(=Nc3ccccc3SC2c2ccc(Br)cc2)c2ccccc21 (stereo unspecified)
CC(C)(C)c1ccc(O)c(CNC2CCCCC2)c1
CCCCc1c(C)nc2c(OC)cccc2c1O
OC(CNC1CCCCC1)Cn1c2ccccc2c2ccccc21 (stereo unspecified)
O=C(Nc1ccccc1O)c1ccc(Oc2cccc(C(=O)Nc3ccccc3O)c2)cc1
COc1ccc(CCN2C(=O)c3[nH]nc(-c4cc(Cl)c(C)cc4O)c3C2c2ccccc2F)cc1 (stereo unspecified)
Cc1cc(Nc2ccc3ccccc3c2)n2ncnc2n1
Cc1[nH]c(-c2ccc(F)cc2)cc1C(=O)NC1CCN(Cc2ccccc2)CC1
COc1ccccc1NC1=C(N2CCCCC2)C(=O)c2ccccc2C1=O
COc1ccccc1CNC(=O)CCn1c(=O)[nH]c2ccsc2c1=O
COCCN(C(=O)Cc1cccs1)C(C(=O)NCc1ccc(OC)cc1)c1ccc(C(C)C)cc1 (stereo unspecified)
Cc1cc(C=C2SC(=Nc3ccccc3)N(C3CCCC3)C2=O)c(C)n1-c1ccc(Cl)cc1
COc1nc(Nc2ccc(C(C)C)cc2)nc(OC)n1
CCOc1ccccc1CN1CCc2nc3cc(C(C)(C)C)nn3c(O)c2C1
O=[N+]([O-])c1ccc(C=NNc2nc3ccccc3[nH]2)cc1
COc1ccc(C2=C(c3ccc(OC)cc3)C3(c4ccccc4)C(=O)C2(c2ccccc2)C2C(=O)N(c4ccc(C)cc4)C(=O)C23)cc1 (stereo unspecified)
CN1C=C(c2ccc3ccccc3n2)C(c2c[nH]c3ccccc23)c2ccccc21 (stereo unspecified)
CC(=O)c1ccc(NC(=O)CSc2nc(-c3ccccc3Cl)ns2)cc1

3 compounds picked at random from the list so far:
Residual sporozoite gliding motility, > 50%:
Cc1cc(Nc2ccc3ccccc3c2)n2ncnc2n1
CCCCN(CCCC)S(=O)(=O)c1ccc(NC(=O)c2ccco2)cc1
O=C(Nc1ccccc1O)c1ccc(Oc2cccc(C(=O)Nc3ccccc3O)c2)cc1
